# Tested on: polytrauma, hemorrhage and TBI
# Test: Arterial blood gas (Example 2)
# Format: in vivo, swine
# Conditions: VPA 150 mg/kg over 3 h
# [1] = IO group, End (end of experiment)
# [2] = IO group, Shock (end of hemorrhage/start of shock)
# [3] = IO group, Treatment (end of shock/start of NS resuscitation ± VPA)
# [4] = IO group, pRBC (start of blood transfusion)
# [5] = IV group, End (end of experiment)
# [6] = IV group, Shock (end of hemorrhage/start of shock)
# [7] = IV group, Treatment (end of shock/start of NS resuscitation ± VPA)
# [8] = IV group, pRBC (start of blood transfusion)
smiles,measurement,setting,value
"CCCC(CCC)C(=O)O [VPA, valproic acid]",HCO3,[1],24.3 mM
same,Hgb,[1],14.3 g/dL
same,K,[1],4.6 mM
same,Lactate,[1],3.5 mmol/L
same,pH,[1],7.41
same,HCO3,[2],27.4 mM
same,Hgb,[2],10.7 g/dL
same,K,[2],4.3 mM
same,Lactate,[2],2.8 mmol/L
same,pH,[2],7.48
same,HCO3,[3],22.9 mM
same,Hgb,[3],10.0 g/dL
same,K,[3],4.3 mM
same,Lactate,[3],8.1 mmol/L
same,pH,[3],7.37
same,HCO3,[4],22.4 mM
same,Hgb,[4],9.0 g/dL
same,K,[4],4.9 mM
same,Lactate,[4],6.0 mmol/L
same,pH,[4],7.39
same,HCO3,[5],22.9 mM
same,Hgb,[5],13.3 g/dL
same,K,[5],5.2 mM
same,Lactate,[5],4.1 mmol/L
same,pH,[5],7.44
same,HCO3,[6],22.2 mM
same,Hgb,[6],11.4 g/dL
same,K,[6],4.6 mM
same,Lactate,[6],3.6 mmol/L
same,pH,[6],7.46
same,HCO3,[7],17.5 mM
same,Hgb,[7],9.9 g/dL
same,K,[7],4.6 mM
same,Lactate,[7],9.1 mmol/L
same,pH,[7],7.30
same,HCO3,[8],18.7 mM
same,Hgb,[8],8.7 g/dL
same,K,[8],5.1 mM
same,Lactate,[8],8.0 mmol/L
same,pH,[8],7.39
